Earlier results in patent publication US20210246144A1, “A SET OF MITOCHONDRIA-TARGETED COMPOUNDS” (MITOTECH S.A., priority 2017, published 2021).
At least one compound was matched to its structure with a doubt left.

Conditions: cited from earlier work

SMILES	penetration through bilayer phospholipid membranes
COc1ccc2c(CC(=O)OCCCCCCCCCC3=CC(=O)C(C)=C(C)C3=O)c3[n+](cc2c1OC)CCc1cc2c(cc1-3)OCO2 [SkQBerb, 21-(2-{[9-(4,5-dimethyl-3,6-dioxocyclohexa-1,4-dien-1-yl)nonyl]oxy}-2-oxoethyl)-16,17-dimethoxy-5,7-dioxa-13λ^5-azapentacyclo[11.8.0.0^21.0.0^4.8.0^15.20]henicosa-1(21),2,4(8),9,13,15(20),16,18-octaen-13-ylium]	penetrate through bilayer phospholipid membranes
COc1cc2c(cc1OC)-c1c(CC(=O)OCCCCCCCCCC3=CC(=O)C(C)=C(C)C3=O)c3ccc(OC)c(OC)c3c[n+]1CC2 [SkQPalm, 13-(2-{[9-(4,5-dimethyl-3,6-dioxocyclohexa-1,4-dien-1-yl)nonyl]oxy}-2-oxoethyl)-3,4,10,11-tetramethoxy-7,8-dihydro-6λ^5-azatetraphen-6-ylium]	penetrate through bilayer phospholipid membranes
